Data as given in US7696313B2 (priority 2000, dated 2010).
For some assays here: HELM strings list residues between dots; [ac] is acetyl, [am] amide, other brackets name non-standard units.

Key:
[1] = general procedure: Fmoc solid-phase peptide synthesis; Wang's alkoxy resin (0.60 mmol/μm loading); HBTU, DIEA; conditions: for crude HPLC purity: 254 nm
[2] = general procedure: Fmoc solid-phase peptide synthesis; Wang's alkoxy resin; HBTU, DIEA; conditions: whole synthesis, HPLC method A, 254 nm

Fmoc-β-Ala-Ile-Ala-Leu-Dox
conjugation yield ([1]; conjugation step): 88% | crude HPLC purity ([1]; conjugation step, HPLC method A): 92%

Fmoc-β-Ala-Ile-Ala-Leu-OH
crude HPLC purity [2]: 92%

PEPTIDE1{[Suc].[bAla].I.A.L.[Dox]}$$$$V2.0
step yield ([1]; late stage modification step): 78% | crude HPLC purity ([1]; late stage modification step, HPLC method B): 86%
